From patent US20210388105A1

Experiments:
ENTPD6 protein [1] = assay: ELISA, coated protein
ENTPD6 protein [2] = assay: ELISA on coated ENTPD6 protein, anti-hIgG-HRP, OD450

binding (ENTPD6 protein [1]): no binding
binding (ENTPD6 protein [2]): no binding (tested: about 66 nM)
B1: hu23.H5L5 (antibody, V domains shown)
VH: QVQLVQSGAEVKKPGASVKVSCKASGYNLKDTFLHWVRQAPGQGLEWMGRIDPANGNIKYDPKFQGRVTITADTSANTAYMELISLRSEDTAVYYCANSPYYYGSGYRIFDVWGQGTTVTVSS
VL: QIVLTQSPATLSLSPGERATLSCSAFSSVNYMHWYQQKPGQAPRLLIYTTSNLASGIPTRFSGSGSGTSYTLTISSLEPEDFAVYYCQQRSTYPFTFGQGTKLEIK

Results are given in words; binding and its absence hold for the method and conditions named.
